Assay results: patent publication US20240294663A1
Where a chain is given by its changes, count along the chain named. In names and notes the source's numbering stands. Results are given in words; binding and its absence hold for the method and conditions named. Some results given as binding are weak or reduced against the parent protein; the word gives no strength.

Chains of the proteins cited; added tags and fusions are not shown. Lines headed by an entry give the natural chain unless they say otherwise; changes in a name come on top. A line that says so, or that is headed by a name, gives the form on record, which may keep a tag or linker.
purified MSLN ectodomain (Q13421, form named): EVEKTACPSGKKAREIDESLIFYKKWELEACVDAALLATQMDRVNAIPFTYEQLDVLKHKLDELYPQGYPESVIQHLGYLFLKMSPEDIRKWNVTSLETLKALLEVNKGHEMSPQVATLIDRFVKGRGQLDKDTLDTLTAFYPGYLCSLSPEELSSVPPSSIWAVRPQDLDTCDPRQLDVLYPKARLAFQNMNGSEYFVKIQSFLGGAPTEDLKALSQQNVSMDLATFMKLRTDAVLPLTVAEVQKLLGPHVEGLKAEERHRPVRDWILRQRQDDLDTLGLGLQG

B1: anti-MSLN 1A12 antibody (Parent Clone) (antibody, human IgG1, kappa, N297A, V domains shown)
VH: EVQLLESGGGLVQPGGSLRLSCAASGLTFRSYAMTWVRQAPGKGLEWVSGISVSGGITYYADSVKGRFTISRDNSKNTLYLQMNSLRAEDTAVYYCAKRGAAVGSFDYWGQGTLVTVSS
VL: DIQMTQSPSSLSASVGDRVTITCRSSQGIGSWLAWYQQKPEKAPQSLIYAASSLQSGVPSRFSGSGSGTDFTLTISNLQPEDFATYYCQQYNSYPLTFGGGTKVEIKR
B2: 1A12 heavy chain variant SMT580 (S63T) (antibody, human IgG1, kappa, N297A, V domains shown)
VH: B1 VH with S63T
VL: B1 VL
B3: 1A12 heavy chain variant SMT578 (D62S) (antibody, human IgG1, kappa, N297A, V domains shown)
VH: B1 VH with D62S
VL: B1 VL
B4: 1A12 light chain variant SMT573 (N92A) (antibody, V domains shown)
VH: B1 VH
VL: B1 VL with N92A
B5: 1A12 heavy chain variant SMT577 (D62E) (antibody, human IgG1, kappa, N297A, V domains shown)
VH: B1 VH with D62E
VL: B1 VL
B6: 1A12 light chain variant SMT572 (N92S) (antibody, V domains shown)
VH: B1 VH
VL: B1 VL with N92S
B7: 1A12 heavy chain variant SMT579 (D62A) (antibody, human IgG1, kappa, N297A, V domains shown)
VH: B1 VH with D62A
VL: B1 VL
B8: 1A12 heavy chain variant SMT581 (S63V) (antibody, human IgG1, kappa, N297A, V domains shown)
VH: B1 VH with S63V
VL: B1 VL

target: purified MSLN ectodomain (human) (UniProt Q13421); test: SPR (Carterra LSA), antibody captured on anti-human IgG, MSLN ectodomain as analyte

binding, binds:
B1
B2
B3
B4
B5
B6
B7
B8
